Results are given in words; binding and its absence hold for the method and conditions named. Binding seen in cells or lysates may run through a third protein. Binding calls can cover weak binding; strength is not graded here. Where a sequence is shown, tags or fusion partners need not be part of it.
B1: Mp65-HA (protein, UniProt Q59XX2 33-378)
chain: AVHVVTTTNVVVVTIGNGDQTTTFAAPSVAAESSVSVSVNTEPPQNHPTTTQDVASASTYPSSTDGSAASSSAAASSSSQAGSEPSGGVGSGGAKGITYSPYSDNGGCKSESQIASEIAQLSGFDVIRLYGVDCSQVEAVLKAKTSSQKIFAGIFDVSSITSGIESLAEAVKSCGSWDDIYTVSIGNELVNAGSATPSQIKAYVEEGRKALKAAGYTGPVVSVDTFIAVINNPDLCDYSDYMAVNAHAFFDGHVVAENSGAWVLQQIQRVWTACGGKKNVLITETGWPSRGDSNGVAVPSKSNQQAAISSIKSSCGASAILFTAFNDLWKADGPYNAEKYWGIYSN
B2: Sln1-Myc (protein, UniProt Q5A872 1-1373)
chain: MRRLKIGIRPQLIIIVCFASLFSLLILGIVTGIYFSANLKNLRLERLLVISQLKRTQVQQAIQYIAYQVMTVSEVDSLTVPLSNYRAGNNSKAVFSEAQNYLQQYVLTTDSFTAARLYDLDLQVVASSFDNMTLISESAQDVVYPLQPNRSMPPVLGTPSGLYFTGPIANNSDNFNSRYFMGITVPVLSNSSIILSQPSISGYLTIVAAAESIRSALNSTSEDDYQAMAVQPVYGDPQKGIDNLSQNAYNGDNEVIGFKLVFPVENSLLEAGTIYNINSSSSMKTALASNSGTATGVKSFFGKKVAIGFSRISVQDNLNWSIVIVQSNSVFNGPANKLRKITIGVVIGIGAFMCFVTFPLAVWFIRPITKLKEATEAITKYKKEKLNSVNSNSPTSGSGSGSGSGSGSRANSDSSADQSLSLDTGKRNSINSSSFSSSYSTGIRLPARIPRSKKIFKDELTELSEAFNIMTEELDKQYTHLEDRVKLRTKELEASKIQAEAANEAKTVFIANISHELRTPLNGILGMTSIAMEEEDPNVIHDSLKLIHRSGELLLHILTELLTYSKNTLNRSKLEKSNFQILEIVYQVRSIFNKLAHDQRVNFKILVKPNIFRKLIIYGDSNRIIQIVMNLVSNSLKFTPVDGSVSVSFKLLGEYDHERSKKLDYKKVCILNDSSSSTVAVPPPTPPSDTKPNPKPKSTPTPKPDPTRSHLVDHNNRSANTTSPLTPVRKPTNQTKNKSITNNVTKQNMKIRKKKKTNKNLHNNNNNNKNDNSDFLMNRRLSGSHKFNNTNDEELSPTAIEKNIDKYLTSSADSDNISVTTLSTVQYETTIFESQFKSKPLPALPVDAKPQVSGKIDENDVNDEDPSGGSIKDDDSEDTINEKQGISSSPSSSSSSNEKQENSPRSNDSTTVTVTRPRHNMMPSAQDFKSYPTFDKKPEYDSNMSNNEIVKNNRVYRIRNMYQPKVWVIQIEVTDTGPGIEPALQEKVFEPFVQGDQTLSRSYGGTGLGLSICRQLATMMHGTLTLKSTIGKGSTFTLTLPLPQTGEIMVPPEDMAEFCEDEFNPAAKINRKVAFEDGDIDTESQQQENPSSEEDTQGDRNVQSSTSSSPPNSSSTDSALPASDSSDIGGTNKSKTTSHGNNKNINAKKRIITNSSASSTKGTKRHTNNDGGGGVNGNHSDDNKDLTLTIDKPSLFTRGSTGTANSGTTSSHSDKKILYPTPTTTTTTTTTTDHTTVLDDISHLRVLVAEDNSVNQEVISRMLKQEGITNLTMACNGAKAIDFVKESIENNENFDLIFMDVQMPEVDGLKATKMIRKNLQYNKPIIALTAFADESNVKECLNSGMSGFITKPISKTNIKKVLVEFLSNEVVTS

Tests used:
Myc-Cyr1 (C. albicans) = test: co-IP; C. albicans cell lysates on HA or Myc antibody beads, 4°C, ≥1 h; five washes in lysis buffer (50 mM Tris-HCl pH 7.4, 150 mM KCl, 1% NP-40); Western blot with αMyc or αHA
HA-Cyr1 (C. albicans) = test: as above

| Binder | binding (Myc-Cyr1 (C. albicans)) | binding (HA-Cyr1 (C. albicans)) |
| --- | --- | --- |
| B1 | binds |  |
| B2 |  | binds |
